Here are results for one substance from article PMC8517470.

Amino acid sequences for entries named in this document (tags omitted). A change or cut given only in a name is not applied to a line headed by its entry.
UniProt G5IXG8: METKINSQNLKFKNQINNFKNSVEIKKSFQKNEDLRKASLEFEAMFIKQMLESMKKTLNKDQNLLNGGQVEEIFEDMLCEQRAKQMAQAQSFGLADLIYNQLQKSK

Assay [1] has as its target T1, MBP tagged FlgG (BB0774) (Borrelia burgdorferi) (UniProt O51715).
T1 sequence: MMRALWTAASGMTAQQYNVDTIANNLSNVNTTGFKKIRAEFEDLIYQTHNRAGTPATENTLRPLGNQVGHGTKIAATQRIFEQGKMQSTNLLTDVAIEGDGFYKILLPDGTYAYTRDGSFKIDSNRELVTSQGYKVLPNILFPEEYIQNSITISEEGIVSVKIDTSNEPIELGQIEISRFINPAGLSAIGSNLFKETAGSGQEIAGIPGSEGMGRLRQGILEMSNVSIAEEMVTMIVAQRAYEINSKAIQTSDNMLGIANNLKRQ
Description: far-Western, overlay or dot blot; 1 μg purified MBP-tagged proteins run on SDS-PAGE and transferred to PVDF; blocked in 5% BSA, 10 mM Tris, 150 mM NaCl, 0.3% Tween 20, pH 7.4; incubated overnight with or without purified FLAG-FlgJ at 2 μg/ml in blocking solution; detected with anti-FLAG M2 antibody and ECL 2; both purified.

For assay [2], the target named is T2, MBP tagged FlgD (BB0284) (Borrelia burgdorferi) (UniProt Q44920).
T2 sequence: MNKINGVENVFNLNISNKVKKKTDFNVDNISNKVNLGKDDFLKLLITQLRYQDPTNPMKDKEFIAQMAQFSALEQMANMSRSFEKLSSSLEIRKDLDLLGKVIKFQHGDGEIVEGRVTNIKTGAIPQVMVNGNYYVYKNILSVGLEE
The description is as above.

These are yes or no findings as the source states them, for the method shown. For some assays here: Binding calls can cover weak binding; strength is not graded here. Sequences can lack the tags named with a protein.

On to “1xFLAG tagged FlgJ (BB0771a, also named BB0858) (from UniProt G5IXG8)”, for which the binding entry is given as “no binding (tested: 2 μg/ml)” in assay [1] and “binds” in assay [2].
